From PubChem BioAssay AID2685 (National Center for Advancing Translational Sciences (NCATS), 2010)
About 2,100 (0.66%) of roughly 320,000 compounds were called active. Inconclusive results, whose numbers are uncertain, are shown with a selection of clear calls. The call rests on the fitted dose curve; in most records, active means well fitted inhibition curve with a large enough effect in the signal ratio, with a control signal flat (not every such curve was filed as active); inconclusive means small, poorly fitted or top-dose-only effect, or effect the other way, or a change in a side signal; inactive means flat fitted curve, though single readings scatter; the % refers to the signal ratio. A potency beside an inconclusive call is a rough fit, not a confirmed value.

Test: qHTS Assay for Lipid Storage Modulators in Drosophila S3 Cells
Conditions: BODIPY lipid droplet fluorescence, 18-24 h, cells fed with added oleic acid; lipid storage change, negative = inhibition: at 46.1 µM (top of the series) unless noted
In short: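 Drosophila S3 cells got compounds at several concentrations plus oleic acid (400 uM solution). Laser-scanning cytometry with 488 nm excitation read lipid droplets at 500-530 nm and cells at 575-640 nm. Percent activity was relative to 20 uM Triacsin C.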
On the % scale 0 is the no-effect control and ±100 the full control effect; potency means the concentration at half of the fitted maximal effect.

SMILES | lipid storage change, negative = inhibition | Potency | outcome
CN(C(=O)COC(=O)c1n[nH]c2ccccc12)c1ccccc1 | inconclusive: 13.2% |  | 
COc1ccc(Br)cc1CN1CCCCCC1 | inconclusive: 22.7% |  | 
CC(=O)Nc1ccc(-c2csc(NC(=O)Cc3ccccc3F)n2)cc1 | inconclusive: 24.8% |  | 
O=C(CSC(=S)N1CCCC1)NCC(=O)Nc1ccccc1Br | inconclusive |  | 
O=C(Nc1ccc(C(=O)N2CCCCC2)cc1)C1CCCCC1 | inconclusive: 1% |  | 
CCN(CC(=O)Nc1c(F)cccc1F)C(=O)C1CCCN(C(=O)c2ccc(Cl)cc2)C1 (stereo unspecified) |  | inconclusive: 0.146 µM [falling, full curve, poor fit] | 
Cc1nn(C)c(C)c1/C=C/C(=O)c1ccc(Cl)cc1Cl | inconclusive: -8.95% |  | 
Cc1cc(C)cc(NC(=O)Nc2ccc(S(=O)(=O)Nc3cc(C)on3)cc2)c1 | inconclusive: -7.02% |  | 
COC(=O)[C@H]1C[C@@H]1[C@H](NS(=O)(=O)c1ccc2ccccc2c1)c1ccccc1 | inconclusive: 20.4% |  | 
CCC(=O)Nc1ccc(C(=O)COC(=O)c2sc(C)nc2C)cc1 | inconclusive: -7.54% |  | 
CCC(C)(C)n1nnnc1C(C(C)C)N1CCN(C)CC1 (stereo unspecified) | inconclusive: -11.4% |  | 
NC(=O)c1ccccc1OCc1cccc2ccccc12 |  |  | inactive [at 46.1 µM]
COc1cccc(/C=N/NC(=O)Cn2ccnc2C)c1 | inconclusive: -13.4% |  | 
CC(C)C[C@H](NC(=O)c1[nH]cnc1C(=O)Nc1ccc(Cl)cc1)C(=O)OC(C)(C)C | inconclusive: 0.394% |  | 
CCCCn1c(=O)[nH]c(=O)c2c1nc(-c1ccc(-c3ccccc3)cc1)n2C |  | active: 3.66 µM | 
O=C(N1CCOCC1)N1CCN(c2ccccc2F)CC1 | inconclusive: 11.7% |  | 
CC(=O)Nc1ccc(S(=O)(=O)Nc2nc(CN3CCOCC3)nc3sc4c(c23)CCCC4)cc1 |  | inconclusive: 14.6 µM [rising, partial curve] | 
CC(=O)C1=C(O)C(=O)N(Cc2ccccc2)C1c1ccc([N+](=O)[O-])cc1 (stereo unspecified) |  | inconclusive: 9.2 µM [falling, partial curve] | 
O=C(NCC(=O)N1CCCCCCC1)c1cccc([N+](=O)[O-])c1 |  | inconclusive: 29.1 µM [activator, single point] | 
CCOC(=O)c1sc2nc(C)nc(SCC(=O)NC3CCS(=O)(=O)C3)c2c1C (stereo unspecified) | inconclusive: -8.42% |  | 
Cc1oc2ccc(OS(C)(=O)=O)cc2c1C(=O)OC(C)C | inconclusive: 7.38% |  | 
CCCCN(CCCC)S(=O)(=O)c1ccc2oc(C(=O)N3CCOCC3)c(C)c2c1 | inconclusive: -28.7% |  | 
Cc1ccc(C(NC(=O)c2ccccc2)C(Cl)Cl)cc1 (stereo unspecified) | inconclusive: -0.124% |  | 
CCCCN(C(=O)C(C)Oc1ccc(Br)cc1)c1c(N)n(CC(C)C)c(=O)[nH]c1=O (stereo unspecified) | inconclusive: 21.2% |  | 
CC(C)(C)NC(=O)NC(=O)COc1ccccn1 |  | inconclusive: 23.1 µM [falling, partial curve, poor fit] | 
Cc1cc(Cn2nc(-c3ccccc3)cc2C(=O)NCC2CC2)on1 | inactive: -21.7% |  | 

Some values from the results shown.
For outcome, NC(=O)c1ccccc1OCc1cccc2ccccc12 has inactive [at 46.1 µM]
For lipid storage change, negative = inhibition, COc1cccc(/C=N/NC(=O)Cn2ccnc2C)c1 has inconclusive: -13.4%

Next compounds.

SMILES | lipid storage change, negative = inhibition | Potency | outcome
C/C(CC(=O)Nc1cc(C)ccn1)=N\NC(=O)c1ccc(C(C)(C)C)cc1 | inconclusive: 15.7% |  | 
CC(=O)c1ccc(N2CCN(C(=O)CCN3C(=S)NC(C)(C)CC3C)CC2)cc1 (stereo unspecified) |  | inconclusive: 0.82 µM [activator, full curve, poor fit] | 
OCCNCc1cc(Br)ccc1OCc1ccc(Cl)cc1 | inconclusive: -23.4% |  | 
CC1CC(=S)Nc2ccccc2N1C(=O)Nc1ccccc1 (stereo unspecified) | inconclusive: -4.66% |  | 
O=S1(=O)CCO[C@H]2Cc3ccccc3[C@H]2N1Cc1ccccc1Br | inconclusive: -24.5% |  | 
O=C(NC12CC3CC(CC(C3)C1)C2)c1ccc(=O)oc1 | inconclusive: 7.1% |  | 
CC(Oc1ccc2ccc(=O)oc2c1)C(=O)NCCCn1ccnc1 (stereo unspecified) | inconclusive: 104% |  | 
CCCCn1c(N)c(N(CCC(C)C)C(=O)CC2OC(=O)c3ccccc32)c(=O)[nH]c1=O (stereo unspecified) | inconclusive |  | 
COc1ccc(C(C)NCCC(c2ccc(OC(C)C)cc2)c2ccccc2OC)cc1 (stereo unspecified) |  | inconclusive: 29.1 µM [falling, single point] | 
COc1ccc(OC(C)C(=O)N(C)Cc2nc(-c3cccc(C)c3)no2)cc1 (stereo unspecified) |  | inconclusive: 0.146 µM [activator, full curve, poor fit] | 
O=C(Nc1ccc(F)cc1)Nc1ccccc1C(=O)NCCN1CCNC1=O | inconclusive: -1.43% |  | 
CCc1ccc(NC(=O)CCC(=O)c2ccc(C)cc2)cc1 | inconclusive: 11.8% |  | 
COc1ccc(NC2=CC(c3ccc(OC)c(OC)c3)N(c3ccc(OC)cc3)C2=O)cc1 (stereo unspecified) | inconclusive: -9.85% |  | 
CCc1ccc(N=C2NC(=O)/C(=C/c3cc(OC)c(OC)c(OC)c3)S2)cc1 |  | inconclusive: 20.6 µM [falling, single point] | 
NC(=O)Cn1c(O)c(N=NC(=O)CNC(=O)/C=C/c2ccccc2)c2ccccc21 | inconclusive: 16.5% |  | 
COc1cc(CN2CCN(CCOCCO)CC2)cc(OC)c1OC |  | inconclusive: 23.1 µM [falling, single point] | 
CCOC(=O)c1nn(-c2ccc(F)cc2)c(=O)c2c(N)scc12 | inconclusive: -19.6% |  | 
Cc1ccc(C(=O)N/C(=C\c2ccco2)C(=O)N2CC(C)OC(C)C2)cc1C (stereo unspecified) | inconclusive: 381% |  | 
CC(C)CNS(=O)(=O)c1ccc(S(=O)(=O)N2CCN(CCC#N)CC2)cc1 | inconclusive: 12% |  | 
COc1ccc(Oc2nc(-c3ccccc3)ncc2C(=O)O)cc1 | inconclusive: -9.42% |  | 
CCOc1cc(C(=O)NCc2ccco2)cc(OCC)c1OCC | inconclusive: -79.3% |  | 
CN(C)S(=O)(=O)c1ccc(C(=O)OCc2ccc([N+](=O)[O-])cc2)cc1 | inconclusive: -95.3% |  | 
CC(C)c1cc(C(=O)O)n(-c2ccccc2)n1 |  | inconclusive: 0.0731 µM [falling, full curve, poor fit] | 
CC1=CC(C)(C)Nc2ccc(OC(=O)CN3C(=O)C4CCCCC4C3=O)cc21 (stereo unspecified) | inconclusive: 107% |  | 
O=C(O)c1cc(/C=N\O)ccc1OCc1ccccc1 | inconclusive: -38.8% |  | 
